Source: PMC11557686

Protein sequences, listed by entry. Tags and fused reporters are not part of them. Lines headed by an entry give the natural chain unless they say otherwise; changes in a name come on top.
UniProt O15260: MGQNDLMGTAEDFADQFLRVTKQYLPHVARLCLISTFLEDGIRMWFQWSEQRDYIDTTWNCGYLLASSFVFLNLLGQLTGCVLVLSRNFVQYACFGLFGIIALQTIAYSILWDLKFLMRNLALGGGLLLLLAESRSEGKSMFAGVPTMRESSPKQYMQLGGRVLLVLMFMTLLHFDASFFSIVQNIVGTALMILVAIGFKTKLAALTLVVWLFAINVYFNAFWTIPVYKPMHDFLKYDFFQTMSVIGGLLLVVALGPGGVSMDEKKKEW
UniProt Q8NBP7: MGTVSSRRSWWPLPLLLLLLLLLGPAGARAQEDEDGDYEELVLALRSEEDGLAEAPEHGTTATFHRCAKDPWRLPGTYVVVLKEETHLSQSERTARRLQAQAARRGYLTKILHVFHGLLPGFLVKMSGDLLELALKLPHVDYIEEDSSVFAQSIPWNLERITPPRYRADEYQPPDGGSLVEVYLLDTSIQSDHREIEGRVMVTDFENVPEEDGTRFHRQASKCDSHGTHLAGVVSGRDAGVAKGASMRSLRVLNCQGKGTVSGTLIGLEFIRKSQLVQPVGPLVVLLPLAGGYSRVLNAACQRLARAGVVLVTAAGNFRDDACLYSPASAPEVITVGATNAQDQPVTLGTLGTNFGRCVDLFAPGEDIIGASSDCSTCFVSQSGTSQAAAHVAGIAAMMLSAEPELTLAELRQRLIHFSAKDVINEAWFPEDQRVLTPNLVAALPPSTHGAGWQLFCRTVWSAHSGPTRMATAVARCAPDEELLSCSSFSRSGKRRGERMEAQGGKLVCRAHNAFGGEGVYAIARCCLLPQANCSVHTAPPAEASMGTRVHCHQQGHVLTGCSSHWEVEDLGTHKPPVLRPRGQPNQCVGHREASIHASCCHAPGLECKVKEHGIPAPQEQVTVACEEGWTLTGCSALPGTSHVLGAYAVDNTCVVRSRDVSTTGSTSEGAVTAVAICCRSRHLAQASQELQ
UniProt O95486: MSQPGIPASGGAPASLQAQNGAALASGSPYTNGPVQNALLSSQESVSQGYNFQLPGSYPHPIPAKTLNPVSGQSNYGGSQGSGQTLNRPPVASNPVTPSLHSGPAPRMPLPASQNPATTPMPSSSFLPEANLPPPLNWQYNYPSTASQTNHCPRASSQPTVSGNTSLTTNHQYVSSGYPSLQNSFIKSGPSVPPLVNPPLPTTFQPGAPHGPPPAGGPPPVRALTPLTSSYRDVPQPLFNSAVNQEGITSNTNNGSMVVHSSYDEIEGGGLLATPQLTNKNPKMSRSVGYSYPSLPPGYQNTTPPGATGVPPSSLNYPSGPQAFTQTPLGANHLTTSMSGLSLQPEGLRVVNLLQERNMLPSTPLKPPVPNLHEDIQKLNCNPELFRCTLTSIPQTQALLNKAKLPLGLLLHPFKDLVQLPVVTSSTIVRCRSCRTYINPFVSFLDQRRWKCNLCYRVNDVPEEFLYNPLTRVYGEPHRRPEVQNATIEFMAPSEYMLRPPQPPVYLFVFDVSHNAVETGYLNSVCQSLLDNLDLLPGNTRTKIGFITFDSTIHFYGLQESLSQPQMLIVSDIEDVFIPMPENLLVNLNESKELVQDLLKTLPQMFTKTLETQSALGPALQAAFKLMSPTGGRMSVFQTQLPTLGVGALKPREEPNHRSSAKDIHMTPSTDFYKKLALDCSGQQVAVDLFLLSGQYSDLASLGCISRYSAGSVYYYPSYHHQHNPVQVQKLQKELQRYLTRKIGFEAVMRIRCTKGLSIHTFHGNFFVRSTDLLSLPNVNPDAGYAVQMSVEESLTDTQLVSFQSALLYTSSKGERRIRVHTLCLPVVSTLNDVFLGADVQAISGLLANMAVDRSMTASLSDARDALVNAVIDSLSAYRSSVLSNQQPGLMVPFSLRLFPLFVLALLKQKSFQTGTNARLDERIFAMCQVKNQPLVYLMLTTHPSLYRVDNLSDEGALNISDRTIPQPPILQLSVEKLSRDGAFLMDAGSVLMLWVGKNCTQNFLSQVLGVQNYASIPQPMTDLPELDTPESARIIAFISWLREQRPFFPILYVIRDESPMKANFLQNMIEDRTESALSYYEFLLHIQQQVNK

Tests used:
[1] = target: T1, SP-HA-TMED10 WT (UniProt P49755); experiment: cross-linking + co-IP; HEK TREx-293 TMED10 KO cells co-transfected; 0.2 mM DSP in PBS with 0.2 mM CaCl2, RT 30 min; lysis in 1.0% Triton X-100, 150 mM NaCl, 2 mM CaCl2, pH 7.5; anti-HA agarose or anti-V5 on Protein G Sepharose; immunoblot
T1 sequence: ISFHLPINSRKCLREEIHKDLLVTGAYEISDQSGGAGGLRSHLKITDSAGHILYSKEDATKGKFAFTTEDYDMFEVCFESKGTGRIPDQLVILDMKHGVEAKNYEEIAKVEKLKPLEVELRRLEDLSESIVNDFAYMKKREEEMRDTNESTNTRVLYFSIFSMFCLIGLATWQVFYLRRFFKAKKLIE

[2] = target: LgBiT-SURF4 (UniProt O15260); experiment: split reporter; LgBiT-SURF4 and SmBiT-SEC24A or SmBiT-SEC24C co-expressed in HEK-293TREx double KO cells; NanoGlo Live Cell Substrate, room temperature 15 min; luminescence normalised to WT; also after 4-PBA (4 h) or siRNA against TMED10, TMED2 or LMAN1

Substance | binding [1] | binding [2]
PCSK9-V5 (from UniProt Q8NBP7) (enzyme) | binds | 
SmBiT-SEC24A B-site mutant (from UniProt O95486) |  | binds
SmBiT-SEC24A D-site mutant (from UniProt O95486) |  | binds

Results are given in words; binding and its absence hold for the method and conditions named. Binding seen in cells or lysates may run through a third protein. Binding can be weak; no strength is given. For part of these data: Sequences can lack the tags named with a protein.
